# Laboratory results from publication PMC7819943, “Rice protein-binding microarrays: a tool to detect cis-acting elements near promoter regions in rice”.
# By UniProt entry, the sequences of proteins in these tests, tags left out.
# UniProt Q0JBA9, entry or part of it: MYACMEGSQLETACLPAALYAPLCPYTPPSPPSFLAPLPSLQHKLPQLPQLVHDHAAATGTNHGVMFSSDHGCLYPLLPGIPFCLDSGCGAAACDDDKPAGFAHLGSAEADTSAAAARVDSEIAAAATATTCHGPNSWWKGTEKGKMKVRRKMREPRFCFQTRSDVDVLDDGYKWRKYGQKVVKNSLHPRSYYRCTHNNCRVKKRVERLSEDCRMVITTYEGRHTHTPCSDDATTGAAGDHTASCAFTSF
# The other results are listed elsewhere or left out.
# Target: OsWRKY34 (Oryza sativa, UniProt Q0JBA9 1-250)
# Test: protein-binding microarray (RPBM); PBS, 2% BSA, 51.3 ng/ul salmon testes DNA, 50 uM zinc acetate, 200 nM TF, 25 C, 1 h; high values mean tight binding
# Conditions: protein: recombinant; tags: N-terminal polyhistidine and DsRed monomer fusion (pET32a); label: CyDye5-dUTP incorporated in the synthesized complementary strand; 3' TTTTT single-stranded linker to array surface; dsDNA, one strand shown
# Summary of the method: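 Transcription factors were each fused at the N-terminus to a polyhistidine tag plus DsRed and expressed in E. coli BL21-CodonPlus before Ni–NTA purification. Binding to a double-stranded custom Agilent array was carried out with 200 nM protein at 25 °C for 1 h in PBS, 2% BSA, salmon testes DNA and 50 µM zinc acetate. The binding signal is per-feature fluorescence intensity, in arbitrary units, on an Axon 4000B scanner.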
row,Sequence,binding signal
1,CACCATTAGCATCATTTAAAGTATAAGGTCCCATTTGATTCGGAGTCACCTAGTGCAG,8040 fluorescence intensity (a.u.)
2,TTTAAATGTATCATGTCATTGACTTTTTTATAATATTTGACGGAGTCACCTAGTGCAG,8120 fluorescence intensity (a.u.)
3,ACATCGTTTTTCGCTCAATGTTGCCACGCTGGCATGCCACCGGAGTCACCTAGTGCAG,9760 fluorescence intensity (a.u.)
4,TATGCGCAGAACATGAGGGAGGGGTTGGGAACACTTAACACGGAGTCACCTAGTGCAG,13000 fluorescence intensity (a.u.)
5,CGCGCCACTCTCATCCGCCTCCGCATATGTCGGCCTCGTGCGGAGTCACCTAGTGCAG,8580 fluorescence intensity (a.u.)
6,TACAAGTATCGTTTATTTTTGTTATAACTTGTTTTAATCACGGAGTCACCTAGTGCAG,10700 fluorescence intensity (a.u.)
7,CTCCTCCACCCACCCACACTTCACACTTCTTGTTTGATCACGGAGTCACCTAGTGCAG,8830 fluorescence intensity (a.u.)
8,ACTCCCCTCCCCGCCACGTCGCCATTCTTCCCGCTCCTGACGGAGTCACCTAGTGCAG,9750 fluorescence intensity (a.u.)
9,GGGGTGGGCGGAGGGAGCAGGTGATACTGCCACCCTCGTACGGAGTCACCTAGTGCAG,9150 fluorescence intensity (a.u.)
10,ATGTATCTTATGCATACTCACTGCACGTATGCACGTCACACGGAGTCACCTAGTGCAG,9200 fluorescence intensity (a.u.)
11,TCTATGCTGATTAATTTTTTCTTGTTCTGTCCCTATTAACCGGAGTCACCTAGTGCAG,9360 fluorescence intensity (a.u.)
12,CCAACGTATGTGTACAACCGTCCCCAAGCTTCTGATTATCCGGAGTCACCTAGTGCAG,8080 fluorescence intensity (a.u.)
13,ATGACCTTGCATGCCATTTCTATATTAAGCATCTTATCGTCGGAGTCACCTAGTGCAG,9680 fluorescence intensity (a.u.)
14,CCTCCCGCCTCTACTCCACGCTACCGCTGCTGCTGCTGCTCGGAGTCACCTAGTGCAG,8360 fluorescence intensity (a.u.)
15,TCATTCGTAAGGCCGTCAGCAATATCTTCTATAGGTTCGTCGGAGTCACCTAGTGCAG,8270 fluorescence intensity (a.u.)
16,TACGGACTTCTTCCAAGTTTTATTGTGTACTACATCTTTTCGGAGTCACCTAGTGCAG,8890 fluorescence intensity (a.u.)
17,CCCACCATTTTATATTATAAGCTGTTTGACTTTTTCTTAACGGAGTCACCTAGTGCAG,13100 fluorescence intensity (a.u.)
18,GTGGCGCCGAGGGAGGGGAACGCCGGTGTGGGGAGGGCGGCGGAGTCACCTAGTGCAG,11600 fluorescence intensity (a.u.)
19,TTTCTACGTCTAGGTTAAGCCCATAGTCTCATACTCTCACCGGAGTCACCTAGTGCAG,8420 fluorescence intensity (a.u.)
20,CCATCCGGCGAGCAGGGGAGGGGAGGGTCGCTGATCTCCACGGAGTCACCTAGTGCAG,11700 fluorescence intensity (a.u.)
21,GTGGTACTAGAGGGATGTGCATGCTTGATTTGAAGACATACGGAGTCACCTAGTGCAG,8390 fluorescence intensity (a.u.)

# For convenience, part of the list above:
row,Sequence,binding signal
10,ATGTATCTTATGCATACTCACTGCACGTATGCACGTCACACGGAGTCACCTAGTGCAG,9200 fluorescence intensity (a.u.)
11,TCTATGCTGATTAATTTTTTCTTGTTCTGTCCCTATTAACCGGAGTCACCTAGTGCAG,9360 fluorescence intensity (a.u.)

# (next part)

row,Sequence,binding signal
1,TACCCTACACCTGCACTACATTTGTCATGCGCAATTTCATCGGAGTCACCTAGTGCAG,10600 fluorescence intensity (a.u.)
2,TTAATTTGTTTTCACGTATGGTTGTGTTGCCCGCTTGGAACGGAGTCACCTAGTGCAG,9500 fluorescence intensity (a.u.)
3,GGTTTGAAATAGATTTTGTTTGGTTGGTGGTATAGATAGTCGGAGTCACCTAGTGCAG,10200 fluorescence intensity (a.u.)
4,GAAGGGGCGCGTTTGTGTTGTTTGGTATGCGATGGACAAGCGGAGTCACCTAGTGCAG,9560 fluorescence intensity (a.u.)
5,TTTGTCTCCTGTTTCCCTGATGTCGTACTACGTAGATCCTCGGAGTCACCTAGTGCAG,8640 fluorescence intensity (a.u.)
6,TACACTCCACCGGCCGCTCGCTTGCCGCCGCTCCGCTCCGCGGAGTCACCTAGTGCAG,11500 fluorescence intensity (a.u.)
7,GCTATCCATATTTAGTTTTCTTCTTCTTCTTCTTCTTCTTCGGAGTCACCTAGTGCAG,10600 fluorescence intensity (a.u.)
8,CCCTTGGCGAACACCGGCACTTTCACGCACACCTCGTGAACGGAGTCACCTAGTGCAG,8180 fluorescence intensity (a.u.)
9,ACTATTGACCACCATTAATTATACATAACCACTTTAGTATCGGAGTCACCTAGTGCAG,8180 fluorescence intensity (a.u.)
10,GAGGACATGCATGTGCAAGGGGAGCAGGTGGGGTAAAATGCGGAGTCACCTAGTGCAG,8930 fluorescence intensity (a.u.)
11,AAATAAATCTCAGTTCTCTATTGCATGGTTTCTGGTACTCCGGAGTCACCTAGTGCAG,9830 fluorescence intensity (a.u.)
12,ACAACCTGGCCCCACACCCAAACCCGGGCCCACGTGTCATCGGAGTCACCTAGTGCAG,9100 fluorescence intensity (a.u.)
13,ATACTTCTATATCATTTTTTTTTGCGGGGTACTTCTATATCGGAGTCACCTAGTGCAG,12600 fluorescence intensity (a.u.)
14,GTTTATTTCAGCTCTCTTTGTTGTGGGGAAATAGCACCAACGGAGTCACCTAGTGCAG,8700 fluorescence intensity (a.u.)
15,GTTGGTTTCTCGCCCTCCGTTTGGGTAGTAGCTGATATACCGGAGTCACCTAGTGCAG,9750 fluorescence intensity (a.u.)
16,CACGTTATCATTTATTTTGTATATATACTGAGTTACATCTCGGAGTCACCTAGTGCAG,10500 fluorescence intensity (a.u.)
17,TTCCGTTTCACCACCACCGTCTCGGATCAAACCGGCCAACCGGAGTCACCTAGTGCAG,10400 fluorescence intensity (a.u.)
18,GCCATCACCCAATATATGTTACTCCATTTTTTTTCCTCGTCGGAGTCACCTAGTGCAG,10800 fluorescence intensity (a.u.)
19,GCAATGTCTGAGTACTTATCTAGCTGGTCACAAAACTAATCGGAGTCACCTAGTGCAG,8580 fluorescence intensity (a.u.)
20,CCTTGACCGTTCCCAGAAAGGTTGACCGTTGTCCGTCACTCGGAGTCACCTAGTGCAG,9240 fluorescence intensity (a.u.)
21,TCGACCTCGCCCTCGACACGCTCGCCGCCGCGCGCTCCTTCGGAGTCACCTAGTGCAG,9430 fluorescence intensity (a.u.)
